# Assay results published in PMC3289634.
# Chains of the proteins cited; added tags and fusions are not shown. Residues count along the entry.
# UniProt P61244, 22-113: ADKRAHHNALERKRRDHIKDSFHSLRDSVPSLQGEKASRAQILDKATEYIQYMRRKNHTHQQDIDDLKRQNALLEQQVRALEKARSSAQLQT
# For at least one entry, the source does not settle the construct or the ends of the probe. At least one verdict rests on a figure or table, not on a statement of the authors.
# Biological target: Max bHLHZ (UniProt P61244)
# Test: CD
# Settings: 10 uM monomer, 10 uM duplex, helicity 49% to 67%; CD: 15.1 mM Na2HPO4, 4.9 mM KH2PO4, 50 mM NaCl, pH 7.4, 22 C; recombinant protein
sequence,measurement,value
TGCAGGAACCACGTGGTGAAGGTT (double strand) [E-box DNA],binding result,binds
